Source: publication PMC8533110
No constants are given. Whether binding was seen depends on the method and setting. In cells and extracts the contact can be indirect. Some entries that bind do so weakly or less than the wild type. Sequences can lack the tags named with a protein.

Amino acid sequences for entries named in this document (tags omitted).
UniProt O69289: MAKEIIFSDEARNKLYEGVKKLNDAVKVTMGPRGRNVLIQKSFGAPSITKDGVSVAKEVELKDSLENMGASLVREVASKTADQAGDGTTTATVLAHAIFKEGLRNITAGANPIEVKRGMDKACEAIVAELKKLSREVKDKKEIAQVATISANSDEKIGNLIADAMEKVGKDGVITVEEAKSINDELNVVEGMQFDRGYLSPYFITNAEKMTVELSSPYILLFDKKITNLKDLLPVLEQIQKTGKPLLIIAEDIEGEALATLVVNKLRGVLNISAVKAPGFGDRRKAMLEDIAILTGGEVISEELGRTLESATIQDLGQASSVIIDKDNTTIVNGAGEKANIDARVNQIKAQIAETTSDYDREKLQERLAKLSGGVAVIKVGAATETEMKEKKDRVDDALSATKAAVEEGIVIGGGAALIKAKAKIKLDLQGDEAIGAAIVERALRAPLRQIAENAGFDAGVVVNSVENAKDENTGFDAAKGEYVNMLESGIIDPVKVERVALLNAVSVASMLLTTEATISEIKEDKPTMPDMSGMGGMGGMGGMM

Biological target: T1, GST-HrcA fusion protein (C. jejuni NCTC11168 HrcA repressor fused to glutathione S-transferase) (C. jejuni NCTC 11168) (UniProt Q9PPG2)
T1 sequence: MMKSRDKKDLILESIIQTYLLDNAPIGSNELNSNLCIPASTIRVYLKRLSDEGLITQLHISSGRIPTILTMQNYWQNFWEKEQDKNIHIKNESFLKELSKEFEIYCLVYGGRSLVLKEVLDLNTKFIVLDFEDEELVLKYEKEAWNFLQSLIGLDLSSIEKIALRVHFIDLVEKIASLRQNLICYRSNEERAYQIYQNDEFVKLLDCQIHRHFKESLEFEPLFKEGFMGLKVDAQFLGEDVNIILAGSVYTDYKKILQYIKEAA
Experiment: pull-down; GST-HrcA on glutathione-agarose as bait, incubated 16 h at 4 °C with pre-cleared C. jejuni NCTC11168 cytoplasmic extract in Res buffer (10 mM Tris-HCl pH 7.5, 100 mM NaCl, 20 mM KCl, 1 mM EDTA, 0.01% NP-40); GroEL detected by anti-GroEL immunoblot; GST alone as control bait; only the target …

- binding: binds
Substance: GroEL chaperonin of C. jejuni (from UniProt O69289 1-545)
